Measured values taken from patent US20160143917A1, “COMPOSITIONS AND METHODS FOR […] ACTIVATION” (priority 2013, published 2016).
At least one structure is not confirmed: it was looked up by name or label, or the drawing left a doubt.

Test system: latently infected primary T-cells (Th17)
Assay: CDK9 pSer175 and Nef by flow cytometry in latently infected primary T-cells
Format: cell-based
Settings: drug alone
Method: At the time of HIV-1 provirus re-activation one of the key marker is phosphorylation of serine 175 amino acid residue of CDK9 (CDK9 pSer175). To determine the status of HIV-1 provirus re-activation in latently infected primary T-cells (Th17) by ESR-1 antagonist Tamoxifen, phosphorylation of serine 175 of CDK9 was measured by flow cytometry analysis. Along with CDK9 pSer175, expression of viral protein Nef was also measured. […] Keeping that in mind, latently infected primary T-cell was treated with tamoxifen and SAHA alone or in combination where sub-optimum dose of (250 nM) was used (FIGS. 11 B, D, E). […] Therefore re-activation of latent provirus in Gossypol and/or SAHA treated primary T-cell was also examined (FIGS. 11 C-D).

Cc1cc2c(C(C)C)c(O)c(O)c(C=O)c2c(O)c1-c1c(C)cc2c(C(C)C)c(O)c(O)c(C=O)c2c1O [Gossypol]
re-activation of latent provirus (CDK9 pSer175 and Nef expression): increase in both CDK9 pSer175 and Nef
